PubChem BioAssay AID652243 – Drosophila RNAi Screening Center – 2013
Aim: 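Knock-downs that decrease or increase androgen receptor reporter signal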 (primary screen). System: Drosophila S2R+ cells. Reagent: long dsRNA against Drosophila genes. Time to read-out: 72 h (48 h, then 24 h hormone). Challenge: synthetic androgen R1881 at 10 nM for 24 h. Read-out: 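Firefly light from an androgen-responsive reporter and Renilla control light per well, raw and unnormalised, for each of two replicates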. Direction: firefly reporter light: higher = more light from androgen-responsive reporter; Renilla control light: higher = more constitutive control signal (cell number, transfection). Rule for the call: 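Across duplicate plates, a knock-down whose log firefly/Renilla ratio shifted a set fold down or up from the GFP/LacZ control mean was a hit; the downward cut appears as both 1.5 and 3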. Meaning of the calls: active = hit: reporter lowered or raised; inactive = no hit.
The deposit covers about 24,000 reagents; shown is an unselected part of those that have a named target and a result. In the full data, 246 (1%) are marked active. 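Plates not normalised; calls are printed but the firefly/Renilla ratio behind them is not deposited; fold cut for lowering reported inconsistently.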 Raw values vary from plate to plate and are shown uncorrected. A plus sign joins genes that one reagent is predicted to hit. The record does not give: the amount of reagent.

The opening 5 entries as a preview:
gene	DRSC id	firefly reporter light, replicate 1	firefly reporter light, replicate 2	Renilla control light, replicate 1	Renilla control light, replicate 2	activity call
lilli (lilliputian)	DRSC00708	1.92e5	1.62e5	3.00e6	2.12e6	inactive
slf (schlaff)	DRSC00583	1.14e5	1.21e5	5.43e5	7.23e5	inactive
slf (schlaff)	DRSC27361	3.58e5	3.99e5	3.28e5	3.32e5	inactive
l(2)37Cd (lethal (2) 37Cd)	DRSC02069	6.87e5	8.12e5	1.35e6	1.68e6	inactive
CG33143	DRSC04151	3.29e5	3.26e5	2.61e6	2.00e6	inactive

The listing, from the start:
gene	DRSC id	firefly reporter light, replicate 1	firefly reporter light, replicate 2	Renilla control light, replicate 1	Renilla control light, replicate 2	activity call
lilli (lilliputian)	DRSC00708	1.92e5	1.62e5	3.00e6	2.12e6	inactive
slf (schlaff)	DRSC00583	1.14e5	1.21e5	5.43e5	7.23e5	inactive
slf (schlaff)	DRSC27361	3.58e5	3.99e5	3.28e5	3.32e5	inactive
l(2)37Cd (lethal (2) 37Cd)	DRSC02069	6.87e5	8.12e5	1.35e6	1.68e6	inactive
CG33143	DRSC04151	3.29e5	3.26e5	2.61e6	2.00e6	inactive
CG33143	DRSC04454	1.68e5	1.58e5	1.55e6	1.22e6	inactive
CG33143	DRSC27587	2.25e5	2.60e5	4.58e5	6.98e5	inactive
CG17834	DRSC02637	8.22e5	9.99e5	2.01e6	1.76e6	inactive
CG17834	DRSC26694	4.01e5	4.50e5	4.19e5	4.39e5	inactive
CG3277	DRSC00588	1.21e5	1.03e5	1.04e6	9.39e5	inactive
CG3277	DRSC36832					inactive
CG3277	DRSC36833					inactive
mia (meiosis I arrest)	DRSC12137	75325	48990	4.21e5	3.36e5	inactive
CG33110	DRSC16137	2.53e5	3.35e5	3.34e6	2.04e6	inactive
CG33110	DRSC27221	2.53e5	3.20e5	6.70e5	7.09e5	inactive
fit (female-specific independent of transformer)	DRSC15280	3.14e5	2.84e5	3.07e6	3.50e6	inactive
PGRP-SC1b (Peptidoglycan recognition protein SC1b)	DRSC07215	8.28e5	1.14e6	1.59e6	1.54e6	inactive
CG33461	DRSC22892	6.92e5	9.19e5	1.52e6	2.37e6	inactive
CG33461	DRSC26007	4.13e5	3.79e5	6.75e5	5.88e5	inactive
trus (toys are us)	DRSC15772	81222	76155	1.12e6	1.55e6	inactive
trus (toys are us)	DRSC25521	7.13e5	7.72e5	6.88e5	8.87e5	inactive
CG13359	DRSC18539	2.74e5	3.00e5	4.12e6	3.43e6	inactive
CG13359	DRSC26791	4.82e5	4.31e5	7.98e5	4.02e5	inactive
ddbt (deadbeat)	DRSC38857	8.29e5	7.60e5	2.33e6	2.03e6	inactive
RunxB (Runt related B)	DRSC20395	5.16e5	3.63e5	2.17e5	1.35e5	inactive
RunxB (Runt related B)	DRSC20525	19208	15790	94874	55300	inactive
RunxB (Runt related B)	DRSC20526	12893	6247	69714	35943	inactive
RunxB (Runt related B)	DRSC23150	7.83e5	8.95e5	7.64e5	8.91e5	inactive
RunxB (Runt related B)	DRSC28799	4.03e5	6.20e5	1.39e6	1.65e6	inactive
Klp68D (Kinesin-like protein at 68D)	DRSC11206	8.55e5	9.33e5	1.52e6	1.99e6	inactive
Klp68D (Kinesin-like protein at 68D)	DRSC29890	9.04e5	6.55e5	1.12e6	1.27e6	inactive
CG7381	DRSC16238	39286	37112	4.12e5	4.97e5	inactive
CG7381	DRSC29012	4.73e5	3.88e5	1.14e6	1.25e6	inactive
Nf-YA (Nuclear factor Y-box A)	DRSC23126	4.13e5	6.37e5	5.80e5	8.23e5	inactive
CG1582	DRSC19732	1.29e5	1.03e5	9.02e5	7.84e5	inactive
CG30496	DRSC06805	1.44e6	1.27e6	1.88e6	1.72e6	inactive
CG1113	DRSC12163	34083	41512	1.32e6	9.39e5	inactive
CG14095	DRSC10098	1.87e5	1.53e5	2.10e6	1.65e6	inactive
CG13615	DRSC14618	1.52e5	1.93e5	2.41e6	2.80e6	inactive
CG13615	DRSC24018	1.35e6	9.52e5	1.49e6	1.09e6	inactive
CG31835 + CG42585	DRSC01412	1.68e5	1.40e5	7.64e5	6.20e5	inactive
CG15475	DRSC02486	1.22e5	1.36e5	1.40e6	1.88e6	inactive
CG15475	DRSC30114	5.65e5	6.18e5	1.42e6	1.28e6	inactive
CG14384	DRSC14842	79767	80823	1.47e6	9.79e5	inactive
Sirt1 (Sirtuin 1)	DRSC03435	9.86e5	7.97e5	1.21e6	1.09e6	inactive
Pfdn4 (Prefoldin 4)	DRSC09761	2.86e5	3.32e5	3.15e6	3.02e6	inactive
Pfdn4 (Prefoldin 4)	DRSC26736	5.62e5	5.13e5	6.29e5	7.03e5	inactive
Ama (Amalgam)	DRSC12489	72413	58038	4.85e5	4.32e5	inactive
CG1575	DRSC18069	53900	81009	2.30e5	3.51e5	inactive
CG1575	DRSC27030	4.86e5	3.24e5	4.54e5	4.17e5	inactive
CG30197	DRSC22394	4.22e5	7.12e5	1.53e6	2.37e6	inactive
Efhc1.2 (EF-hand domain containing 1.2)	DRSC06027	8.23e5	3.52e5	1.25e6	6.37e5	inactive
CG18788	DRSC02697	1.70e5	1.53e5	1.34e6	1.48e6	inactive
CG4615	DRSC17491	5.02e5	7.08e5	3.52e5	3.68e5	inactive
CG4615	DRSC18376	62238	72038	4.97e5	4.83e5	inactive
CG4615	DRSC26722	4.59e5	7.17e5	8.91e5	7.07e5	inactive
CG4362	DRSC15567	3.25e5	3.19e5	2.58e6	2.61e6	inactive
CG4766	DRSC17736	3.62e5	4.71e5	3.05e6	3.84e6	inactive
